We go through 40 sequences from the supplement of paper PMC10338343.

± gives the standard deviation. This is one part of the list. Many entries were measured with a wide error.

For one experiment, the system named is EfPiwi piRISC loaded with L1MC piRNA (26 nt). As to the kind of experiment: pre-steady-state target cleavage rate (min^-1); guide: L1MC piRNA 5'p-UAACUAAAUACUAUGCAAGCUGUAGG; MIWI and MILI are mouse PIWI proteins and EfPiwi is from a freshwater sponge; tags in brackets are library labels; higher = faster piRNA-guided slicing of the target. The following applies: auxiliary factor: 500 nM Ephydatia muelleri Gtsf1. A digest of the protocol:
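A transcribed, DNA-blocked target RNA library […] was incubated at 33 °C for 0–8 or 0–960 min with 1 nM active affinity-purified piRISC carrying one synthetic guide, in HEPES–potassium acetate buffer with or without 500 nM GTSF1 partner protein. Uncleaved targets were then sequenced and normalised to depth and to weakly complementary targets. Data from three trials were pooled, with k3 capped at 0.0001 min^-1, and a burst-and-steady-state fit yielded the pre-steady-state cleavage rate.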
With UCCUCCUACAGCUUGCAUAGUAUUUAUGUUA, the “pre-steady-state target cleavage rate” value was 0.00546 ± 0.0027.
Still for that read-out and setting: in the case of UCCUGGUACAGCUUGCAUAGUAUUAUGUUA it was 0.00349 ± 0.0025; in that of UCCUGGAUGUGCUAGCAUAGUAAUUAGUUA, 0.00101 ± 0.0034.
With UCCUGCUACUGCUUGCAAAGUAUUUAGUUA, the “pre-steady-state target cleavage rate” value stood at 0.00588 ± 0.0023.
Still for that read-out and setting: in the case of UCCUGGUACAGCUUGCAAAGUAUUUACUUA it was 0.0016 ± 0.004; in that of UCCUGGAUGAGCUUGCAAAGUAUUUAGUAA, 0.00293 ± 0.0033; in that of UCCUGGAACUGGUUGCAUAGUAUUUAGUUA, 0.02 ± 0.0073.
Same read-out and setting: as for UCCUGGAUCAGCUUGCAUUGUAUUUAGUAA, the figure is 0.00441 ± 0.0018; as for UCCUGGAAGAGCUUGCAUAGUAUUUAGAUA, 0.00519 ± 0.0023.
UCCUGGUACAGCUUGCAUUGUAUUUAGUUA: the “pre-steady-state target cleavage rate” value was found to be 0.00513 ± 0.002.
On the same count and under the same terms, as for UCCUGCUACACGUUGCAUAGUAUUUAGUAA, the figure is 0.00458 ± 0.0025; as for UCCUGGAAUCAGCUUGCAUAGUAUUUAGUUA, 0.0198 ± 0.0068; as for UCCUGGAACAGCAUGCAUAGUAAUUAGUUA, 0.0139 ± 0.0048.
Same read-out and setting: in the case of UCCUGCUUGAGCUUGCAUAGUAUUUAGUUA it was 0.00861 ± 0.0024.
As for UCCUCCUACAGCUUGCAAAGUAUUAAGUUA, the “pre-steady-state target cleavage rate” value is 0.00696 ± 0.0033.
Still for that read-out and setting: as for UCCUGGAUGUCGAUCCAUAGUAUAUAGUUA, the figure is 0.000616 ± 0.0091; as for UCCUCCUACAGCUUGCAUAGCAUUUAGUUA, 0.00463 ± 0.0019.
Still for that read-out and setting: in the case of UCCUGGAUGUCCUUGUAUAGUAUUUAGUUA it was 0.00424 ± 0.0024; in that of UCCUCCUACUGCUUGCAUAGUAUAUAGUUA, 0.0123 ± 0.0054.
Same read-out and setting: as for UCCUGGAACAGCAUGCAAAGUAUUUAGUUA, the figure is 0.0163 ± 0.0061; as for UCCUGGUUCAGCUUGCUUAGUAUUUAGUUA, 0.0145 ± 0.0054; as for UCCUGGUACAGCUUCGCAUAGUAUUUAGUUA, 0.038 ± 0.0086.
Consider UCCUGCUUCAGCUUGCAUAGUAAUUAGUUA, for which the “pre-steady-state target cleavage rate” value amounted to 0.00863 ± 0.003.
Still for that read-out and setting: in the case of UCCUGGAUGAGCUUGCAUUGUAUUAAGUUA it was 0.0041 ± 0.0035; in that of UCCUGGAUCACCUUGCAAAGUAUUUAGUUA, 0.00506 ± 0.0019.
Still for that read-out and setting: as for UCCUGCUUCACCUUGCAUAGUAUUUAGUUA, the figure is 0.0076 ± 0.0034; as for UCCUGGAUGUGCUAGCAUAGUAUUUACUUA, 0.00228 ± 0.0047; as for UCCUGGAUCAGCAUGCAUAGUAUUUAGAAA, 0.00356 ± 0.0021.
For the sequence UCCUGCUAGAGCUUGCAUAGUUUUUAGUUA, the “pre-steady-state target cleavage rate” value amounted to 0.00419 ± 0.0013.
Same read-out and setting: in the case of UCCUCCGACAGCUUGCAUAGUAUUUAGUUA it was 0.101 ± 0.026; in that of UCCUGGAUGUCGUUGCAUAGUAUUUAGUGA, 0.00075 ± 0.0068.
For UCCUGCUCCAGCUUGCAUAGUAUUUAGUUA, the “pre-steady-state target cleavage rate” value is 0.0877 ± 0.024.
On the same count and under the same terms, in the case of UCCUGGAACAGGUUGGAUAGUAUUUAGUUA it was 0.00375 ± 0.0014.
The same measure, in the same setting: in the case of UCCUGGAUCAGCUUGCAUAGUUUAUAGUUA it was 0.00056 ± 0.005.
For the sequence UCCUGGAUCUGCUUGCAUAGUAUUUAGAUA, the “pre-steady-state target cleavage rate” value was 0.00401 ± 0.0022.
Same read-out and setting: as for UCCUCCUACAGCUUGCAUAGUAUUUCGUUA, the figure is 0.00416 ± 0.0023.

The experiment is the same for the next values; noted with them: auxiliary factor: none (no Gtsf1).
As to UCCUGGUACAGCUUGCAUAGUAUUAUGUUA, the “pre-steady-state target cleavage rate” value came to 0.000372 ± 0.025.
Regarding UCCUGGAUGUGCUAGCAUAGUAAUUAGUUA, the “pre-steady-state target cleavage rate” value was found to be 0.000367 ± 0.023.
Turning to UCCUGGAUCAGCUUGCAUUGUAUUUAGUAA, the “pre-steady-state target cleavage rate” value was 0.000288 ± 0.036.
Same read-out and setting: in the case of UCCUGGAAGAGCUUGCAUAGUAUUUAGAUA it was 0.000839 ± 0.011; in that of UCCUGGAAGAGCUUGCAUAGUAUAUAGUUA, 0.00208 ± 0.0053; in that of UCCUGGUACAGCUUGCAUAGUAUAAUGUUA, 0.00055 ± 0.014.
On the same count and under the same terms, as for UCCUGGAUCACCUUGCAAAGUAUUUAGUUA, the figure is 0.000438 ± 0.019.
Still for that read-out and setting: as for UCCUGGAACAGCUUGCAUAGUAUUUAGUCA, the figure is 0.000531 ± 0.017.
On to UCCUGGAUCAGCUUGCAUAGUUUAUAGUUA, for which the “pre-steady-state target cleavage rate” value is 0.000489 ± 0.015.
The same measure, in the same setting: as for UCCUGGAUCUGCUUGCAUAGUAUUUAGAUA, the figure is 0.00041 ± 0.02; as for UCCUGGAUGUCCUUGCAUACUAUUUAGUUA, 0.00067 ± 0.0084.
